Experimental data taken from doi:10.1101/322610.

Amino acid sequences for entries named in this document (tags omitted). A change or cut given only in a name is not applied to a line headed by its entry.
UniProt P06537: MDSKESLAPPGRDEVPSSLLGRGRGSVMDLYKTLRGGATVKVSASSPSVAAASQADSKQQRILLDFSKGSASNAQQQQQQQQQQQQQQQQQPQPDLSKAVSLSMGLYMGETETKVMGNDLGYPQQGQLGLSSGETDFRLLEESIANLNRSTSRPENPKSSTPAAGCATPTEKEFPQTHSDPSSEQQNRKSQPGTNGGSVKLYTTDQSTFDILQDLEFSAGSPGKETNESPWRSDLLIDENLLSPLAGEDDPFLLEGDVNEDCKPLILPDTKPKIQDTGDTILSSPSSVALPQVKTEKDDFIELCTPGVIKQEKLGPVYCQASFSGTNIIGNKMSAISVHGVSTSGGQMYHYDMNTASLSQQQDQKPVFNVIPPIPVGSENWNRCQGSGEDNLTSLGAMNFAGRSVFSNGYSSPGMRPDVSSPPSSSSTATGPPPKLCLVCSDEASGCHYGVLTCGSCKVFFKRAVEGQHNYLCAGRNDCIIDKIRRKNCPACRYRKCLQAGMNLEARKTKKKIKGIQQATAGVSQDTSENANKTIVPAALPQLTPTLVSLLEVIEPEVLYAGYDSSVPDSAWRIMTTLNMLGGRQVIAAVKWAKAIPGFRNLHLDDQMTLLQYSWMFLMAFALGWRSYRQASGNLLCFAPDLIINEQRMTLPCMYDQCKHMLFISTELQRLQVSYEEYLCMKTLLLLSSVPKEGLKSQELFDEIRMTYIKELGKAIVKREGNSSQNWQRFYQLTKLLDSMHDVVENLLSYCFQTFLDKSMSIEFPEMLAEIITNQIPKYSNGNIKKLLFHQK
UniProt P10417: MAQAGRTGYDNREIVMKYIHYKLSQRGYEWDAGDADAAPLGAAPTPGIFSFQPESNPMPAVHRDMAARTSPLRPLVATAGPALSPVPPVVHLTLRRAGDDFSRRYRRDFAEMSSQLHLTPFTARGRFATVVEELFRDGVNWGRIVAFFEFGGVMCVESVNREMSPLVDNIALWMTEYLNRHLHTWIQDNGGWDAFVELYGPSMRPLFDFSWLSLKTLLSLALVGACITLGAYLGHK
UniProt Q60932: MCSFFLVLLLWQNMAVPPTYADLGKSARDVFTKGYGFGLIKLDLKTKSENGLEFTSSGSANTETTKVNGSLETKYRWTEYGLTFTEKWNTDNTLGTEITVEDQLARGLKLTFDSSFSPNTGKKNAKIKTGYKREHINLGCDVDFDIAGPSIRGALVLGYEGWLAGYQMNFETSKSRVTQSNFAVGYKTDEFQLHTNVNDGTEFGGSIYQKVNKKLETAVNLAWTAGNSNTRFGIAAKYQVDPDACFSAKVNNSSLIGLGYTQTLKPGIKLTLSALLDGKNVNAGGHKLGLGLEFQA

Tests used:
[1] = biological target: glucocorticoid receptor (mouse) (mouse (endogenous in hippocampus)) (UniProt P06537); assay: co-IP
[2] = biological target: Bcl-2 (mouse) (mouse (endogenous in hippocampus)) (UniProt P10417); assay: co-IP

- binding [1]: binds
- binding [2]: binds
Substance: voltage-dependent anion-selective channel 1 (mouse) (from UniProt Q60932)

Results are given in words; binding and its absence hold for the method and conditions named. In cells and extracts the contact can be indirect. Binding calls can cover weak binding; strength is not graded here.
